# From PubChem BioAssay AID540256 (National Center for Advancing Translational Sciences (NCATS), 2011)
# Out of some 300,000 compounds screened, about 3,700 (1.2%) were called active. The inconclusive results got no clear call from the source; some entries with a clear call stand among them for comparison. Calls come from the whole dose curve; tested in HEK293 cells. Where the call is inconclusive, the potency comes from a doubtful curve fit.
# Experiment: qHTS for Inhibitors of binding or entry into cells for Lassa Virus; note: nearly all actives have a fitted effect of over 50% in size
# Conditions: Lassa virus pseudotype entry inhibition, cell reporter; series mostly up to 37.9 µM
# Potency is the fitted concentration of half-maximal effect.
row,SMILES,Potency
1,O=C(OCC(=O)C12CC3CC(CC(C3)C1)C2)c1ccc(O)cc1O,"inconclusive: 6.31 µM [inhibitor, partial curve, poor fit]"
2,COc1cccc(NC(=O)CNC(=O)Cn2c(C)cc3ccccc3c2=O)c1,inactive
3,CCN(CC)C(=O)c1cc2c(=O)c3cc(Cl)ccc3oc2nc1C,inactive
4,Cc1ccc(NC(=S)NC(C)(C)C)c([N+](=O)[O-])c1,inactive
5,CCn1c(SCC(=O)Nc2nccs2)nnc1-c1ccc(S(=O)(=O)N2CCCCC2)cc1,inactive
6,O=C(NCCCO)c1cc2c([nH]c3ccccc32)c(-c2ccc(F)cc2)n1,"inconclusive: 8.91 µM [inhibitor, partial curve, poor fit]"
7,Cc1ccc(C)c(N2C(=O)N(Cc3cc(=O)n4ccccc4n3)c3ccccc3S2(=O)=O)c1,"inconclusive: 22.4 µM [inhibitor, single point]"
8,O=C1c2cnccc2CN1Cc1ccccc1,inactive
9,COc1ccccc1N1CCN(C(c2ccccc2Cl)c2nnnn2C(C)(C)C)CC1 (stereo not given),"inconclusive: 25.1 µM [inhibitor, single point]"
10,COC(=O)c1ccccc1NC(=O)Cn1c(=O)n(Cc2ccc(C(=O)NCc3ccc4c(c3)OCO4)cc2)c(=O)c2ccccc21,"inconclusive: 2.82 µM [activator, full curve, poor fit]"
11,CCOc1ccccc1Nc1cc2n(c(=O)n1)CCc1cc(OC)c(OC)cc1-2,"inconclusive: 35.5 µM [inhibitor, single point]"
12,Cc1nn(-c2ccccn2)c(C)c1Oc1ccccc1O,"inconclusive: 0.082 µM [inhibitor, full curve, poor fit]"
13,Cc1ccc(C)n1-c1nnc(N2CCCC(C(=O)Nc3ccc(C(C)C)cc3)C2)s1 (stereo not given),inactive
14,Cc1ccc(Cl)cc1NC(=O)CSC1=Nc2ccccc2C2=NC(Cc3ccccc3)C(=O)N12 (stereo not given),"inconclusive: 7.08 µM [inhibitor, partial curve, poor fit]"
15,CCC(=O)N1CCc2cc(Br)cc(S(=O)(=O)NCC3CCCO3)c21 (stereo not given),inactive
16,Cc1cccc2sc(NC(=O)Cn3c(C)csc3=O)nc12,"inconclusive: 1.26 µM [activator, single point]"
17,COc1ccc(C(=O)CSc2nnc(CNC(=O)c3ccc(S(=O)(=O)N(C)C)cc3)o2)cc1,"inconclusive: 2.24 µM [activator, partial curve, poor fit]"
18,CCN1CCN(C(=O)c2cc3cc4ccc(OC)cc4nc3s2)CC1,"inconclusive: 29.1 µM [activator, single point]"
19,COCCN(CCOC)C(=O)C1CCN(c2ccc(S(=O)(=O)N3CCOCC3)cc2[N+](=O)[O-])CC1,inactive
20,Cc1ccc[n+](C(C)C(=O)Nc2ccc(C)c([N+](=O)[O-])c2)c1 (stereo not given),"inconclusive: 0.231 µM [inhibitor, single point]"
21,Cc1cc(C)n(Cc2nc3ccccc3n2C)n1,"inconclusive: 11.2 µM [activator, partial curve, poor fit]"
22,CCc1ccc(NC(=O)CN2C(=O)C3(SCC(=O)N3c3ccccc3)c3ccccc32)cc1 (stereo not given),"inconclusive: 22.4 µM [inhibitor, single point]"

row,SMILES,Potency
1,CCOC(=O)c1c(-c2ccc(Cl)cc2)c(C#N)c(=O)n(N)c1N,"inconclusive: 22.4 µM [inhibitor, single point]"
2,CSCCNC(=O)c1ccc(C(C)(C)C)cc1,"inconclusive: 35.5 µM [inhibitor, single point]"
3,O=C(Nc1ccc(Cl)cn1)c1ccc2ccccc2n1,"inconclusive: 6.31 µM [activator, single point]"
4,O=C(NCc1cccs1)C1CCCN(C(=O)Nc2ccccc2)C1 (stereo not given),"inconclusive: 2.82 µM [inhibitor, full curve]"
5,CC(C(=O)NCCN1CCOCC1)(c1ccccc1)c1ccccc1,"inconclusive: 2.24 µM [activator, full curve, poor fit]"
6,O=C(C1CCN(S(=O)(=O)c2ccc(Br)s2)CC1)N1CCc2ccccc21,"inconclusive: 2.82 µM [inhibitor, single point]"
7,CCOc1ccc(NC(=O)c2cn(C)c(=O)c3cc(OC)c(OC)cc23)cc1,inactive
8,CCCCCOC(=O)C1=C(C)NC(=O)NC1c1ccc(OC)cc1 (stereo not given),"inconclusive: 35.5 µM [inhibitor, single point]"
9,CCOc1ccc(NC(=O)CN(C)C(=O)c2cc(S(=O)(=O)N3CCCCCC3)ccc2OC)cc1OCC,inactive
10,CCC(C)N(CCNC(=O)c1ccc2c(c1)NC(=O)c1ccccc1S2)C1CCCCC1 (stereo not given),active: 3.16 µM
11,CCCN1CCN(CCNC(=O)Nc2ccc(OC)c(OC)c2)CC1,inactive
12,NC(=O)Cc1ccc(C(=O)c2ccc(Cl)cc2)s1,"inconclusive: 31.6 µM [activator, single point]"
13,CCOC(=O)C1CCN(CC(=O)N2CCCc3c2c(=O)oc2ccc(OCc4ccccc4)cc32)CC1,"inconclusive: 1.26 µM [inhibitor, full curve, poor fit]"
14,COc1cc(/C=C/C(=O)Nc2cc(C(F)(F)F)ccc2Cl)cc(OC)c1OC,"inconclusive: 35.5 µM [inhibitor, single point]"
15,COc1ccc(NC(=O)CSc2nc3ccccc3n2CC(=O)N(C)c2ccc(F)cc2)cc1,inactive
16,COc1ccc(OCCCCn2c(C3CC(=O)N(c4cccc(Cl)c4)C3)nc3ccccc32)cc1 (stereo not given),"inconclusive: 8.91 µM [inhibitor, partial curve]"
17,COc1cccc(-c2nnn(CC(=O)O)n2)c1,"inconclusive: 29.1 µM [activator, single point]"
18,c1cncc(CNC2=NCCCCC2)c1,"inconclusive: 32.6 µM [inhibitor, partial curve, poor fit]"
19,Cc1ccc(NC(=O)/C(C#N)=C/c2ccc(C)o2)cc1,inactive
20,CC(C)CCNC(=O)c1ccc2c(c1)NC(=O)C(CS(=O)(=O)Cc1cccc(Br)c1)N2 (stereo not given),inactive
21,COCc1cc(C)nc(SCC(=O)Nc2ccccc2N2CCOCC2)c1C#N,"inconclusive: 6.31 µM [inhibitor, single point]"
22,CC(=O)N1c2ccc(S(=O)(=O)N3CCC(C(=O)Nc4cccc(C)c4)CC3)cc2CC1C (stereo not given),"inconclusive: 11.2 µM [inhibitor, single point]"

row,SMILES,Potency
1,COc1ccc(-c2nc(-c3cccs3)c(-c3cccs3)[nH]2)cc1OC,"inconclusive: 35.5 µM [inhibitor, single point]"
2,COc1ccccc1N1CCN(C(=O)c2cn(-c3ccccc3)nc2-c2cccnc2)CC1,"inconclusive: 6.51 µM [inhibitor, partial curve, poor fit]"
3,Cc1cccc2cc(C3CC(c4ccco4)=NN3S(C)(=O)=O)c(Cl)nc12 (stereo not given),"inconclusive: 10 µM [inhibitor, partial curve, poor fit]"
4,O=C(Cc1cccs1)N/N=C/C=C/c1ccco1,"inconclusive: 4.47 µM [inhibitor, full curve]"
5,O=C(COc1ccc(Cl)cc1Cl)NN1C(=O)C2C3C=CC([C@@H]2C1=O)C31CC1 (stereo not given in full),"inconclusive: 35.5 µM [inhibitor, single point]"
6,Cc1cccc2c(C(=O)N3CCN(c4ccccc4)CC3)cc(-c3ccncc3)nc12,"inconclusive: 22.4 µM [inhibitor, partial curve, poor fit]"
7,CC1CCc2nc(NCCO)nc(C(F)(F)F)c2C1 (stereo not given),inactive
8,CCCSc1ccccc1C(=O)N1CCN(C(=O)c2ccco2)CC1,"inconclusive: 35.5 µM [inhibitor, partial curve, poor fit]"
9,CCC1(C)Cc2ccccc2-c2nc(NCCO)n(-c3ccccc3)c(=O)c21 (stereo not given),"inconclusive: 32.6 µM [inhibitor, partial curve, poor fit]"
10,O=C(NCc1ccccn1)c1ccc(OC2CCN(Cc3ccc(F)cc3F)CC2)cc1,inactive
11,CCOC(=O)CCNC(=O)Nc1ccc2nc(C)n(Cc3ccccc3Cl)c(=O)c2c1,"inconclusive: 9.2 µM [inhibitor, partial curve, poor fit]"
12,Cc1ccc(S(=O)(=O)NCC(=O)OCC(=O)N2CC(=O)Nc3ccccc32)cc1,"inconclusive: 35.5 µM [inhibitor, single point]"
13,OC1(c2ccc(Br)cc2)CN(c2ccccc2)C2=[N+]1CCS2 (stereo not given),"inconclusive: 7.94 µM [inhibitor, partial curve]"
14,Cn1c(Cl)cnc1C1CC(=O)c2cc(Cl)ccc2O1 (stereo not given),"inconclusive: 22.4 µM [inhibitor, partial curve, poor fit]"
15,CC(C)CSc1nnc2c3ccccc3n(C)c2n1,"inconclusive: 0.562 µM [activator, full curve]"
16,Cc1cccc(CN2C(=O)CN=C(c3ccccc3)c3ccccc32)c1,"inconclusive: 3.16 µM [inhibitor, full curve]"
17,CCN(CCCNC(=O)c1cc2cc3ccc(C)cc3nc2s1)c1ccccc1,"inconclusive: 20 µM [activator, single point]"
18,Cc1occc1C(=O)Nc1sc2c(c1C(N)=O)CCCCC2,"inconclusive: 2.59 µM [activator, full curve, poor fit]"
19,C=CCc1cccc2cc(C(=O)Nc3ccc(CC(=O)O)cc3)c(=O)oc12,"inconclusive: 3.98 µM [inhibitor, partial curve, poor fit]"
20,CCCN(c1ccccc1CC)S(=O)(=O)c1ccc2c(c1)CC(C)N2C(=O)C1CC1 (stereo not given),"inconclusive: 11.2 µM [inhibitor, partial curve, poor fit]"
21,COc1ccc(CCN=C(N)Nc2nc(C)cc(C)n2)cc1,"inconclusive: 31.6 µM [inhibitor, single point]"

# Random excerpt: five records from the list.
row,SMILES,Potency
5,O=C(COc1ccc(Cl)cc1Cl)NN1C(=O)C2C3C=CC([C@@H]2C1=O)C31CC1 (stereo not given in full),"inconclusive: 35.5 µM [inhibitor, single point]"
3,Cc1cccc2cc(C3CC(c4ccco4)=NN3S(C)(=O)=O)c(Cl)nc12 (stereo not given),"inconclusive: 10 µM [inhibitor, partial curve, poor fit]"
13,OC1(c2ccc(Br)cc2)CN(c2ccccc2)C2=[N+]1CCS2 (stereo not given),"inconclusive: 7.94 µM [inhibitor, partial curve]"
10,O=C(NCc1ccccn1)c1ccc(OC2CCN(Cc3ccc(F)cc3F)CC2)cc1,inactive
7,CC1CCc2nc(NCCO)nc(C(F)(F)F)c2C1 (stereo not given),inactive
